The values below come from publication PMC4559962.

Results are given in words; binding and its absence hold for the method and conditions named. In cells and extracts the contact can be indirect. A yes stands for co-enrichment or nearness to the bait. Other partners may have been found. Tags and fused reporters may be left off the sequences shown.

Experiment [1] has as its target T1, his6-Flag (HF)-Doa1 (S. cerevisiae) (UniProt P36037).
T1 sequence: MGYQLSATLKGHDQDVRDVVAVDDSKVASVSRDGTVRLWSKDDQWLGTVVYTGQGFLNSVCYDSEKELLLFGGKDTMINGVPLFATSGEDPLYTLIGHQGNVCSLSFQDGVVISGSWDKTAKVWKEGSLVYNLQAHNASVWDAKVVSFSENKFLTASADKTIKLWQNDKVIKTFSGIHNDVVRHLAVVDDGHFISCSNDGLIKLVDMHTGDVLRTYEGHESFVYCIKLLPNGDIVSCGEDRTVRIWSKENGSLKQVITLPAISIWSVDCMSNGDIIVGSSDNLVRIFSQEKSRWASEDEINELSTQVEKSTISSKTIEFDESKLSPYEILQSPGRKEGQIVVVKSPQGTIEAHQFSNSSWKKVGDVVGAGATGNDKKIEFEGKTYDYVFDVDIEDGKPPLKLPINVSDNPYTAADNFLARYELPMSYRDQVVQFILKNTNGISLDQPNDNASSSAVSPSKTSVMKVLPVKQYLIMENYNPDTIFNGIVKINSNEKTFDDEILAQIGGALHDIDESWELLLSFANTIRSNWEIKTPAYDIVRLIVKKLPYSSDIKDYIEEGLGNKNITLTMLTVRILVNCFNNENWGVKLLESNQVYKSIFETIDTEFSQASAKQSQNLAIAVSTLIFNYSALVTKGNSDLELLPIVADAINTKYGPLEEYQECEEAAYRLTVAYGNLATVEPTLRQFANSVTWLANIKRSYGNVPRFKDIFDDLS
The experiment can be described thus: affinity purification with mass spectrometry; purified HF-Doa1 (1 mg) mixed with pre-cleared BY4742 whole cell lysate and retrieved on Ni-NTA resin; lysate without HF-Doa1 as control; LC-MS/MS; only the target purified.

The target in experiment [2] is T2, Wss1-Myc13 (chromosomally tagged) (S. cerevisiae) (UniProt P38838).
T2 sequence: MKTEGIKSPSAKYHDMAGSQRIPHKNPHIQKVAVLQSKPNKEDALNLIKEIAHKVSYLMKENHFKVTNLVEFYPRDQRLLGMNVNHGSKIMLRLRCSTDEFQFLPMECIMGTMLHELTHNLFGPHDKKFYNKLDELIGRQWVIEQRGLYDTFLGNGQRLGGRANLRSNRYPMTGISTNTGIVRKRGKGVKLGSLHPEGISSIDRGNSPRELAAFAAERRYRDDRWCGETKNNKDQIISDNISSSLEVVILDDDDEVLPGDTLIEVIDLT
The experiment can be described thus: affinity purification with mass spectrometry; Wss1-Myc13 from the endogenous locus; lysate on anti-c-Myc agarose, 1 hr at 4°C; parental strain as control; LC-MS/MS.

B1: Wss1 (endogenous) (enzyme, UniProt P38838 1-269)
chain: MKTEGIKSPSAKYHDMAGSQRIPHKNPHIQKVAVLQSKPNKEDALNLIKEIAHKVSYLMKENHFKVTNLVEFYPRDQRLLGMNVNHGSKIMLRLRCSTDEFQFLPMECIMGTMLHELTHNLFGPHDKKFYNKLDELIGRQWVIEQRGLYDTFLGNGQRLGGRANLRSNRYPMTGISTNTGIVRKRGKGVKLGSLHPEGISSIDRGNSPRELAAFAAERRYRDDRWCGETKNNKDQIISDNISSSLEVVILDDDDEVLPGDTLIEVIDLT
As for B1, in experiment [1], the binding entry is recorded as “binds”.

B2: Doa1 (endogenous) (protein, UniProt P36037 1-715)
chain: MGYQLSATLKGHDQDVRDVVAVDDSKVASVSRDGTVRLWSKDDQWLGTVVYTGQGFLNSVCYDSEKELLLFGGKDTMINGVPLFATSGEDPLYTLIGHQGNVCSLSFQDGVVISGSWDKTAKVWKEGSLVYNLQAHNASVWDAKVVSFSENKFLTASADKTIKLWQNDKVIKTFSGIHNDVVRHLAVVDDGHFISCSNDGLIKLVDMHTGDVLRTYEGHESFVYCIKLLPNGDIVSCGEDRTVRIWSKENGSLKQVITLPAISIWSVDCMSNGDIIVGSSDNLVRIFSQEKSRWASEDEINELSTQVEKSTISSKTIEFDESKLSPYEILQSPGRKEGQIVVVKSPQGTIEAHQFSNSSWKKVGDVVGAGATGNDKKIEFEGKTYDYVFDVDIEDGKPPLKLPINVSDNPYTAADNFLARYELPMSYRDQVVQFILKNTNGISLDQPNDNASSSAVSPSKTSVMKVLPVKQYLIMENYNPDTIFNGIVKINSNEKTFDDEILAQIGGALHDIDESWELLLSFANTIRSNWEIKTPAYDIVRLIVKKLPYSSDIKDYIEEGLGNKNITLTMLTVRILVNCFNNENWGVKLLESNQVYKSIFETIDTEFSQASAKQSQNLAIAVSTLIFNYSALVTKGNSDLELLPIVADAINTKYGPLEEYQECEEAAYRLTVAYGNLATVEPTLRQFANSVTWLANIKRSYGNVPRFKDIFDDLS
B2: in experiment [2], the binding result is given as “binds”.
